Source: publication PMC9584938
These are yes or no findings as the source states them, for the method shown. Binding seen in cells or lysates may run through a third protein. Some entries that bind do so weakly or less than the wild type.

Tests used:
[1] = molecular target: FLOT1 (human (endogenous in HEK293)) (UniProt O75955); assay: co-IP; HEK293 lysate (RIPA or 1% NP-40 lysis buffer), 1.6 mg protein with 3 µg antibody overnight at 4 °C, Protein A beads, western blot; control: empty beads
[2] = molecular target: T1, FLOT2 (human (endogenous in HEK293)) (UniProt Q14254); assay: as above
T1 sequence: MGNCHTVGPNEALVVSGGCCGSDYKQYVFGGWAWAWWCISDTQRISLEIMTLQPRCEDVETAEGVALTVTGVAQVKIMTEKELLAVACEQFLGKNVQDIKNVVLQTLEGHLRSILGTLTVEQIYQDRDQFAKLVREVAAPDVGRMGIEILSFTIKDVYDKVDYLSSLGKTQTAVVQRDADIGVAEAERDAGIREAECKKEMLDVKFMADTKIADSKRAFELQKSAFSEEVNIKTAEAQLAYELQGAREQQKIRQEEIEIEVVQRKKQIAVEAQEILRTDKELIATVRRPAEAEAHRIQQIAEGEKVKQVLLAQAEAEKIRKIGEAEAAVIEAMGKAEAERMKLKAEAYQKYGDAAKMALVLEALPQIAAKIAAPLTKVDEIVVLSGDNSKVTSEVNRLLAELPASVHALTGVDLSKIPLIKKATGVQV

B1: PLSCR1 (protein, UniProt O15162 1-318)
chain: MDKQNSQMNASHPETNLPVGYPPQYPPTAFQGPPGYSGYPGPQVSYPPPPAGHSGPGPAGFPVPNQPVYNQPVYNQPVGAAGVPWMPAPQPPLNCPPGLEYLSQIDQILIHQQIELLEVLTGFETNNKYEIKNSFGQRVYFAAEDTDCCTRNCCGPSRPFTLRIIDNMGQEVITLERPLRCSSCCCPCCLQEIEIQAPPGVPIGYVIQTWHPCLPKFTIQNEKREDVLKISGPCVVCSCCGDVDFEIKSLDEQCVVGKISKHWTGILREAFTDADNFGIQFPLDLDVKMKAVMIGACFLIDFMFFESTGSQEQKSGVW
- binding [1]: binds

B2: VANGL1 (protein, UniProt Q8TAA9 1-524)
chain: MDTESTYSGYSYYSSHSKKSHRQGERTRERHKSPRNKDGRGSEKSVTIQPPTGEPLLGNDSTRTEEVQDDNWGETTTAITGTSEHSISQEDIARISKDMEDSVGLDCKRYLGLTVASFLGLLVFLTPIAFILLPPILWRDELEPCGTICEGLFISMAFKLLILLIGTWALFFRKRRADMPRVFVFRALLLVLIFLFVVSYWLFYGVRILDSRDRNYQGIVQYAVSLVDALLFIHYLAIVLLELRQLQPMFTLQVVRSTDGESRFYSLGHLSIQRAALVVLENYYKDFTIYNPNLLTASKFRAAKHMAGLKVYNVDGPSNNATGQSRAMIAAAARRRDSSHNELYYEEAEHERRVKKRKARLVVAVEEAFIHIQRLQAEEQQKAPGEVMDPREAAQAIFPSMARALQKYLRITRQQNYHSMESILQHLAFCITNGMTPKAFLERYLSAGPTLQYDKDRWLSTQWRLVSDEAVTNGLRDGIVFVLKCLDFSLVVNVKKIPFIILSEEFIDPKSHKFVLRLQSETSV
- binding [1]: binds

B3: LPHN1 (latrophilin) (receptor, UniProt O94910 25-1474)
chain: LSRAGLPFGLMRRELACEGYPIELRCPGSDVIMVENANYGRTDDKICDADPFQMENVQCYLPDAFKIMSQRCNNRTQCVVVAGSDAFPDPCPGTYKYLEVQYDCVPYKVEQKVFVCPGTLQKVLEPTSTHESEHQSGAWCKDPLQAGDRIYVMPWIPYRTDTLTEYASWEDYVAARHTTTYRLPNRVDGTGFVVYDGAVFYNKERTRNIVKYDLRTRIKSGETVINTANYHDTSPYRWGGKTDIDLAVDENGLWVIYATEGNNGRLVVSQLNPYTLRFEGTWETGYDKRSASNAFMVCGVLYVLRSVYVDDDSEAAGNRVDYAFNTNANREEPVSLTFPNPYQFISSVDYNPRDNQLYVWNNYFVVRYSLEFGPPDPSAGPATSPPLSTTTTARPTPLTSTASPAATTPLRRAPLTTHPVGAINQLGPDLPPATAPVPSTRRPPAPNLHVSPELFCEPREVRRVQWPATQQGMLVERPCPKGTRGIASFQCLPALGLWNPRGPDLSNCTSPWVNQVAQKIKSGENAANIASELARHTRGSIYAGDVSSSVKLMEQLLDILDAQLQALRPIERESAGKNYNKMHKRERTCKDYIKAVVETVDNLLRPEALESWKDMNATEQVHTATMLLDVLEEGAFLLADNVREPARFLAAKENVVLEVTVLNTEGQVQELVFPQEEYPRKNSIQLSAKTIKQNSRNGVVKVVFILYNNLGLFLSTENATVKLAGEAGPGGPGGASLVVNSQVIAASINKESSRVFLMDPVIFTVAHLEDKNHFNANCSFWNYSERSMLGYWSTQGCRLVESNKTHTTCACSHLTNFAVLMAHREIYQGRINELLLSVITWVGIVISLVCLAICISTFCFLRGLQTDRNTIHKNLCINLFLAELLFLVGIDKTQYEIACPIFAGLLHYFFLAAFSWLCLEGVHLYLLLVEVFESEYSRTKYYYLGGYCFPALVVGIAAAIDYRSYGTEKACWLRVDNYFIWSFIGPVSFVIVVNLVFLMVTLHKMIRSSSVLKPDSSRLDNIKSWALGAIALLFLLGLTWAFGLLFINKESVVMAYLFTTFNAFQGVFIFVFHCALQKKVHKEYSKCLRHSYCCIRSPPGGTHGSLKTSAMRSNTRYYTGTQSRIRRMWNDTVRKQTESSFMAGDINSTPTLNRGTMGNHLLTNPVLQPRGGTSPYNTLIAESVGFNPSSPPVFNSPGSYREPKHPLGGREACGMDTLPLNGNFNNSYSLRSGDFPPGDGGPEPPRGRNLADAAAFEKMIISELVHNNLRGSSSAAKGPPPPEPPVPPVPGGGGEEEAGGPGGADRAEIELLYKALEEPLLLPRAQSVLYQSDLDESESCTAEDGATSRPLSSPPGRDSLYASGANLRDSPSYPDSSPEGPSEALPPPPPAPPGPPEIYYTSRPPALVARNPLQGYYQVRRPSHEGYLAAPGLEGPGPDGDGQMQLVTSL
- binding [2]: binds
- binding [1]: binds

B4: LPHN2 (latrophilin) (receptor, UniProt O95490 26-1459)
chain: FSRAALPFGLVRRELSCEGYSIDLRCPGSDVIMIESANYGRTDDKICDADPFQMENTDCYLPDAFKIMTQRCNNRTQCIVVTGSDVFPDPCPGTYKYLEVQYECVPYIFVCPGTLKAIVDSPCIYEAEQKAGAWCKDPLQAADKIYFMPWTPYRTDTLIEYASLEDFQNSRQTTTYKLPNRVDGTGFVVYDGAVFFNKERTRNIVKFDLRTRIKSGEAIINYANYHDTSPYRWGGKTDIDLAVDENGLWVIYATEQNNGMIVISQLNPYTLRFEATWETVYDKRAASNAFMICGVLYVVRSVYQDNESETGKNSIDYIYNTRLNRGEYVDVPFPNQYQYIAAVDYNPRDNQLYVWNNNFILRYSLEFGPPDPAQVPTTAVTITSSAELFKTIISTTSTTSQKGPMSTTVAGSQEGSKGTKPPPAVSTTKIPPITNIFPLPERFCEALDSKGIKWPQTQRGMMVERPCPKGTRGTASYLCMISTGTWNPKGPDLSNCTSHWVNQLAQKIRSGENAASLANELAKHTKGPVFAGDVSSSVRLMEQLVDILDAQLQELKPSEKDSAGRSYNKLQKREKTCRAYLKAIVDTVDNLLRPEALESWKHMNSSEQAHTATMLLDTLEEGAFVLADNLLEPTRVSMPTENIVLEVAVLSTEGQIQDFKFPLGIKGAGSSIQLSANTVKQNSRNGLAKLVFIIYRSLGQFLSTENATIKLGADFIGRNSTIAVNSHVISVSINKESSRVYLTDPVLFTLPHIDPDNYFNANCSFWNYSERTMMGYWSTQGCKLVDTNKTRTTCACSHLTNFAILMAHREIAYKDGVHELLLTVITWVGIVISLVCLAICIFTFCFFRGLQSDRNTIHKNLCINLFIAEFIFLIGIDKTKYAIACPIFAGLLHFFFLAAFAWMCLEGVQLYLMLVEVFESEYSRKKYYYVAGYLFPATVVGVSAAIDYKSYGTEKACWLHVDNYFIWSFIGPVTFIILLNIIFLVITLCKMVKHSNTLKPDSSRLENIKSWVLGAFALLCLLGLTWSFGLLFINEETIVMAYLFTIFNAFQGVFIFIFHCALQKKVRKEYGKCFRHSYCCGGLPTESPHSSVKASTTRTSARYSSGTQSRIRRMWNDTVRKQSESSFISGDINSTSTLNQGMTGNYLLTNPLLRPHGTNNPYNTLLAETVVCNAPSAPVFNSPGHSLNNARDTSAMDTLPLNGNFNNSYSLHKGDYNDSVQVVDCGLSLNDTAFEKMIISELVHNNLRGSSKTHNLELTLPVKPVIGGSSSEDDAIVADASSLMHSDNPGLELHHKELEAPLIPQRTHSLLYQPQKKVKSEGTDSYVSQLTAEAEDHLQSPNRDSLYTSMPNLRDSPYPESSPDMEEDLSPSRRSENEDIYYKSMPNLGAGHQLQMCYQISRGNSDGYIIPINKEGCIPEGDVREGQMQLVTSL
- binding [2]: binds
- binding [1]: binds

B5: LPHN3 (latrophilin) (receptor, UniProt Q9HAR2 20-1447)
chain: FSRAPIPMAVVRRELSCESYPIELRCPGTDVIMIESANYGRTDDKICDSDPAQMENIRCYLPDAYKIMSQRCNNRTQCAVVAGPDVFPDPCPGTYKYLEVQYECVPYKVEQKVFLCPGLLKGVYQSEHLFESDHQSGAWCKDPLQASDKIYYMPWTPYRTDTLTEYSSKDDFIAGRPTTTYKLPHRVDGTGFVVYDGALFFNKERTRNIVKFDLRTRIKSGEAIIANANYHDTSPYRWGGKSDIDLAVDENGLWVIYATEQNNGKIVISQLNPYTLRIEGTWDTAYDKRSASNAFMICGILYVVKSVYEDDDNEATGNKIDYIYNTDQSKDSLVDVPFPNSYQYIAAVDYNPRDNLLYVWNNYHVVKYSLDFGPLDSRSGQAHHGQVSYISPPIHLDSELERPSVKDISTTGPLGMGSTTTSTTLRTTTLSPGRSTTPSVSGRRNRSTSTPSPAVEVLDDMTTHLPSASSQIPALEESCEAVEAREIMWFKTRQGQIAKQPCPAGTIGVSTYLCLAPDGIWDPQGPDLSNCSSPWVNHITQKLKSGETAANIARELAEQTRNHLNAGDITYSVRAMDQLVGLLDVQLRNLTPGGKDSAARSLNKAMVETVNNLLQPQALNAWRDLTTSDQLRAATMLLHTVEESAFVLADNLLKTDIVRENTDNIKLEVARLSTEGNLEDLKFPENMGHGSTIQLSANTLKQNGRNGEIRVAFVLYNNLGPYLSTENASMKLGTEALSTNHSVIVNSPVITAAINKEFSNKVYLADPVVFTVKHIKQSEENFNPNCSFWSYSKRTMTGYWSTQGCRLLTTNKTHTTCSCNHLTNFAVLMAHVEVKHSDAVHDLLLDVITWVGILLSLVCLLICIFTFCFFRGLQSDRNTIHKNLCISLFVAELLFLIGINRTDQPIACAVFAALLHFFFLAAFTWMFLEGVQLYIMLVEVFESEHSRRKYFYLVGYGMPALIVAVSAAVDYRSYGTDKVCWLRLDTYFIWSFIGPATLIIMLNVIFLGIALYKMFHHTAILKPESGCLDNIKSWVIGAIALLCLLGLTWAFGLMYINESTVIMAYLFTIFNSLQGMFIFIFHCVLQKKVRKEYGKCLRTHCCSGKSTESSIGSGKTSGSRTPGRYSTGSQSRIRRMWNDTVRKQSESSFITGDINSSASLNREGLLNNARDTSVMDTLPLNGNHGNSYSIASGEYLSNCVQIIDRGYNHNETALEKKILKELTSNYIPSYLNNHERSSEQNRNLMNKLVNNLGSGREDDAIVLDDATSFNHEESLGLELIHEESDAPLLPPRVYSTENHQPHHYTRRRIPQDHSESFFPLLTNEHTEDLQSPHRDSLYTSMPTLAGVAATESVTTSTQTEPPPAKCGDAEDVYYKSMPNLGSRNHVHQLHTYYQLGRGSSDGFIVPPNKDGTPPEGSSKGPAHLVTSL
- binding [2]: binds
- binding [1]: binds
